Test results published in the supplement of paper PMC10849652.
This is one part of the list.

By UniProt entry, the sequences of proteins in these tests, tags left out. Where a name states a change or a piece, a line headed by the entry shows the natural chain unless it says otherwise.
UniProt P50453: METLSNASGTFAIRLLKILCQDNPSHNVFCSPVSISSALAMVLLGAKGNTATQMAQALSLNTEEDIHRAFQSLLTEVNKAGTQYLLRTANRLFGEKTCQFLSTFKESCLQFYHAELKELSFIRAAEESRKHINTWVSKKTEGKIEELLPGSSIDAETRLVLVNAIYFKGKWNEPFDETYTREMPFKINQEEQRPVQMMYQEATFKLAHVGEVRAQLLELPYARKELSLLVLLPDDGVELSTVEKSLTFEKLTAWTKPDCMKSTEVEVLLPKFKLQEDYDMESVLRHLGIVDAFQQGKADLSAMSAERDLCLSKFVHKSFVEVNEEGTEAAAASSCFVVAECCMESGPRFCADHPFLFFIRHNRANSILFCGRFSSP
UniProt Q9NXA8: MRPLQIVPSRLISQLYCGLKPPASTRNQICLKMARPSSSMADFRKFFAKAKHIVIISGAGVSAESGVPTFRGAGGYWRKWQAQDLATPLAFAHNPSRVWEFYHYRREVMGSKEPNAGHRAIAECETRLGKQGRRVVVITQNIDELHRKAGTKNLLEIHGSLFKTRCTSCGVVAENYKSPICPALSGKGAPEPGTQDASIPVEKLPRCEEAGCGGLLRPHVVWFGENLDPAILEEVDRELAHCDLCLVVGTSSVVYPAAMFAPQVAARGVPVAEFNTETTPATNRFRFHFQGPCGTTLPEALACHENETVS
UniProt P01008, whole entry, looked up: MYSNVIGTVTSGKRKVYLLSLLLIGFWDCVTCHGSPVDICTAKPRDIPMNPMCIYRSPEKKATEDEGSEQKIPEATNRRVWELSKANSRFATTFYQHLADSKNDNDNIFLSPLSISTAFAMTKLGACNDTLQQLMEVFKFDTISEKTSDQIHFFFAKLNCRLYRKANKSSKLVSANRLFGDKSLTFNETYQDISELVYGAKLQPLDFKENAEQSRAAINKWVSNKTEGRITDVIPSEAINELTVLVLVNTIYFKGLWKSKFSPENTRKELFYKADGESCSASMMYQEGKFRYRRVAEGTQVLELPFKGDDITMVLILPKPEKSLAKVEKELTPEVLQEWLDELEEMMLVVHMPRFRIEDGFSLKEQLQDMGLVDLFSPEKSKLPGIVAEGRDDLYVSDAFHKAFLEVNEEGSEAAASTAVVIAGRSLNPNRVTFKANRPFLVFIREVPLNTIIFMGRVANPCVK
UniProt P23246: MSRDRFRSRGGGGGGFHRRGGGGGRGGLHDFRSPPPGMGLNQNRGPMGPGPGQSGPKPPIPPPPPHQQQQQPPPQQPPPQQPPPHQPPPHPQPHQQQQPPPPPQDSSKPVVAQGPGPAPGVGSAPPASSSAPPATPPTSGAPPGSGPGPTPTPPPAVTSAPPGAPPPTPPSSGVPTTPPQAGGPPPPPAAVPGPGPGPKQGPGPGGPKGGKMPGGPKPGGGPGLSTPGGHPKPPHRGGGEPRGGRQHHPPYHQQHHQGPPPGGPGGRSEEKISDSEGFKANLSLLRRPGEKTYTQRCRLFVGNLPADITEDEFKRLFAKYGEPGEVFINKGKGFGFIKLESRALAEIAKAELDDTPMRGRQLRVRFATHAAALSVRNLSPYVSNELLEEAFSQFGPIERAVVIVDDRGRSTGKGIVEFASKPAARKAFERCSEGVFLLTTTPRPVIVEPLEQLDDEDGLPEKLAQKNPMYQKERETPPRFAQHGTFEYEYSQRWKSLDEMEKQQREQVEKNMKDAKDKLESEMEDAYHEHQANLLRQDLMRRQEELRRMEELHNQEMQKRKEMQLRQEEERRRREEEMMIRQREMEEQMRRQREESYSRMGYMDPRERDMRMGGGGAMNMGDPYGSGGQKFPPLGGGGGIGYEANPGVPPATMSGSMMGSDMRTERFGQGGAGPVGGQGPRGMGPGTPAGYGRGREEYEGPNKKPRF
UniProt Q15427: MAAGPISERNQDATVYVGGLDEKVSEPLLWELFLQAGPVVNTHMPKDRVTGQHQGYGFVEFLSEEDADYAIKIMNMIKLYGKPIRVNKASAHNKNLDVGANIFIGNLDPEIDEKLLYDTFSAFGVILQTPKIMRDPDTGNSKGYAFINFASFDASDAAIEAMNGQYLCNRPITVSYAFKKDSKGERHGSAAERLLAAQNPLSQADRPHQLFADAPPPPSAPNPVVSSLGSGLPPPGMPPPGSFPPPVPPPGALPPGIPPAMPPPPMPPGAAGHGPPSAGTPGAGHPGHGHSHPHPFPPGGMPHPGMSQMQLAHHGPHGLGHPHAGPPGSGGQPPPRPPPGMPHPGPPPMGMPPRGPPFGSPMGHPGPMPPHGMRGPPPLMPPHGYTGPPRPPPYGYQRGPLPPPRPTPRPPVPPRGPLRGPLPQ
UniProt Q15758: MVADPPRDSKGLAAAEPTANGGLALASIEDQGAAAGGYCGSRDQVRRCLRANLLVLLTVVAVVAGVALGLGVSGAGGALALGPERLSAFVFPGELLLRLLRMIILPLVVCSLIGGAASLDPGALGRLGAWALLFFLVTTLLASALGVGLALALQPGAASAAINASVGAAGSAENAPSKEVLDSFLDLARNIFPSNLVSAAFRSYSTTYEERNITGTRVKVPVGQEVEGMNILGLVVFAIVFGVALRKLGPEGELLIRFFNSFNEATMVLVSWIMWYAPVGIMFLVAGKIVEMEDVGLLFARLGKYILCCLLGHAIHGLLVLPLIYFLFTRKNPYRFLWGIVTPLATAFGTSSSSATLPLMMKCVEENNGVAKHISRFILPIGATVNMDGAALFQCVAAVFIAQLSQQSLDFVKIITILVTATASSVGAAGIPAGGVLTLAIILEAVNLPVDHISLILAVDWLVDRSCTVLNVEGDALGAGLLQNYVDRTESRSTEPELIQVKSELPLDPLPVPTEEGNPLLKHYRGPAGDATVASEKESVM
UniProt Q149N8: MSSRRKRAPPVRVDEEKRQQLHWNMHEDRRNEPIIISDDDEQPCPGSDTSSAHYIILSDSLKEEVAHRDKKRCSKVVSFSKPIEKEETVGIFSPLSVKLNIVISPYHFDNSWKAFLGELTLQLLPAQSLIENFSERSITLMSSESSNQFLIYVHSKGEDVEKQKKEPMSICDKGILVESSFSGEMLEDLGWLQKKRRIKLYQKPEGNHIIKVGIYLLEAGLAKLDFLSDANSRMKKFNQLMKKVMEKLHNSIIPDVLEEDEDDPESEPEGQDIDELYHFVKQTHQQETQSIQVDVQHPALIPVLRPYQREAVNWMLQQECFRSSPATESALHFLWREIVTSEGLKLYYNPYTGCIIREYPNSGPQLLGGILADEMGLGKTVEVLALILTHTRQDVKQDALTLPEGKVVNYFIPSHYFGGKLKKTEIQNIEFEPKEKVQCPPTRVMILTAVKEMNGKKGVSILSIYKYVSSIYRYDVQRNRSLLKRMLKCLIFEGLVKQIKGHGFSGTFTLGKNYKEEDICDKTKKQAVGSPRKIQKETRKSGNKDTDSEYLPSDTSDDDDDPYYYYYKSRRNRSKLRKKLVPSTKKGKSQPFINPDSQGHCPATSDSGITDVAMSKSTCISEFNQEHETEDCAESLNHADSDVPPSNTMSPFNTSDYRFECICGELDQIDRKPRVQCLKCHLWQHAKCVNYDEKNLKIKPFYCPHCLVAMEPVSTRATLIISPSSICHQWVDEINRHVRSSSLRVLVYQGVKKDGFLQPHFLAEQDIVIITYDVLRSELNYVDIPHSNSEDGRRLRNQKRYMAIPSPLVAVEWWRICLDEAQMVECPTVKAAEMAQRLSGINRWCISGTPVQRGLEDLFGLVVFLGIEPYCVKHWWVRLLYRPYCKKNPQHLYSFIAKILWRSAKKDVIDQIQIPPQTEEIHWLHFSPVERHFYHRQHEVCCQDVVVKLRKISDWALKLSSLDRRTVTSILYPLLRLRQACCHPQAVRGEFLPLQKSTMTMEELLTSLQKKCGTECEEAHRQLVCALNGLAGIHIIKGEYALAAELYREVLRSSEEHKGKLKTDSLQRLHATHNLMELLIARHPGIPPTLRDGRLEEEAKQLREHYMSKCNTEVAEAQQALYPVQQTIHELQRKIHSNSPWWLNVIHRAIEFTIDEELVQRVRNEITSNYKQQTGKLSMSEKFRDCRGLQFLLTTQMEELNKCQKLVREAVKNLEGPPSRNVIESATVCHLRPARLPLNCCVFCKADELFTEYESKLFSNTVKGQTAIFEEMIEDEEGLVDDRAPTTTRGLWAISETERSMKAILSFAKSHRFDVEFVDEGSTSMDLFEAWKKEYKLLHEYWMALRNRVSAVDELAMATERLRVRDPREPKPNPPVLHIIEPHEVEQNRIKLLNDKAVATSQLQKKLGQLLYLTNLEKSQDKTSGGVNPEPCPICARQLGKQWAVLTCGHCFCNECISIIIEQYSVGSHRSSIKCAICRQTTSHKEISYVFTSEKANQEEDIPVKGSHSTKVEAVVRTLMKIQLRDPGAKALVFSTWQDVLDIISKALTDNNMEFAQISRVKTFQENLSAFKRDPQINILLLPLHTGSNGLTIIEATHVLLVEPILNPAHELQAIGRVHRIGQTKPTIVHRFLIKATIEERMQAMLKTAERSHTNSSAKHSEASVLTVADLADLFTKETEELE
UniProt Q8IX90, whole entry, looked up: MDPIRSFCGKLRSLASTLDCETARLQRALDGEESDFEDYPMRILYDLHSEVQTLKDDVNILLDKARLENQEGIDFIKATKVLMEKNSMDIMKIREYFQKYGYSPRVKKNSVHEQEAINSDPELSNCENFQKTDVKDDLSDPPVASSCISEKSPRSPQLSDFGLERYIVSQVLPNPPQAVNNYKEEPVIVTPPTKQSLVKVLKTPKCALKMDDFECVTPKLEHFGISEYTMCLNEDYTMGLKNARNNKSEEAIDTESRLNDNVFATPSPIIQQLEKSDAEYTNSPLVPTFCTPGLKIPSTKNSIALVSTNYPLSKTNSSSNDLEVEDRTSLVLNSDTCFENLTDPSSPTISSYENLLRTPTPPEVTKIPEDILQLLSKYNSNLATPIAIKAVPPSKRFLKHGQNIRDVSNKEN
UniProt Q9NP31, whole entry, looked up: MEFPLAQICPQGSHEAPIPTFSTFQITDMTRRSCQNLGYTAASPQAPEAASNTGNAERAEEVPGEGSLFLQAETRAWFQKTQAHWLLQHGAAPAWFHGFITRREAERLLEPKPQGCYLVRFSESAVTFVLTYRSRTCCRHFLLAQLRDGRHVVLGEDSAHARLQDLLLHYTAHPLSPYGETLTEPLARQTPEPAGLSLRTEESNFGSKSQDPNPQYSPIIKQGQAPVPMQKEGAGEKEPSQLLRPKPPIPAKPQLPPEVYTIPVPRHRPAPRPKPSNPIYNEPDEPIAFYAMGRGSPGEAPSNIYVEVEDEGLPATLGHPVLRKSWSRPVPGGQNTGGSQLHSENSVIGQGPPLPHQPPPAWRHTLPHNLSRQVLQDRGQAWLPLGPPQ
UniProt Q86TU7: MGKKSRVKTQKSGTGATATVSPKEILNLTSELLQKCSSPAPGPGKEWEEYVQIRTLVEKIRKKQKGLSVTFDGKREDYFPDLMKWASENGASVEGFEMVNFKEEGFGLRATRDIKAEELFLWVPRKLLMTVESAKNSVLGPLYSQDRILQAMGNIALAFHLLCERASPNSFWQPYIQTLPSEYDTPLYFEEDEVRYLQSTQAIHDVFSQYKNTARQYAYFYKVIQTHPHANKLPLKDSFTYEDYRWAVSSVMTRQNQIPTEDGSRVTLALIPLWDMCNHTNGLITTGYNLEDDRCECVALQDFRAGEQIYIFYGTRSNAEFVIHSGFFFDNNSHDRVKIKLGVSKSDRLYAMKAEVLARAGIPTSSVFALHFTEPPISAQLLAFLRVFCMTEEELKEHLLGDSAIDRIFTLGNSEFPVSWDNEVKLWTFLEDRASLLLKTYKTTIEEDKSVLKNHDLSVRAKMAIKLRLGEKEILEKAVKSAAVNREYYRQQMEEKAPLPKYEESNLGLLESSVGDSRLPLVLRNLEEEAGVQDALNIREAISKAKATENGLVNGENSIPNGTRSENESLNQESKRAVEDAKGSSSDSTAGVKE
UniProt Q13530: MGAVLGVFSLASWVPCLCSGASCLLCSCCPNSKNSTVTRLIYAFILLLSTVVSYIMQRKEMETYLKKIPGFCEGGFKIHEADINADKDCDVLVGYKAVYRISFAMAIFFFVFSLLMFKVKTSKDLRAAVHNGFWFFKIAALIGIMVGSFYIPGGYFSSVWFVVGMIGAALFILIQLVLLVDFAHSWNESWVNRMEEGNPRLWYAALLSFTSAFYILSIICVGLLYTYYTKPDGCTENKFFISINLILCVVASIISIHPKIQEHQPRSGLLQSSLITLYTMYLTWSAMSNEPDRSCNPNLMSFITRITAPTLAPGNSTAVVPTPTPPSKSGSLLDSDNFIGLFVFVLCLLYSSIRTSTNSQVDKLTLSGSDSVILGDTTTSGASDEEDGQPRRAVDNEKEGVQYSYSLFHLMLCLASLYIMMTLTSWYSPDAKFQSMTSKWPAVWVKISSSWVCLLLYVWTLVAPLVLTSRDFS
UniProt P63208, whole entry, looked up: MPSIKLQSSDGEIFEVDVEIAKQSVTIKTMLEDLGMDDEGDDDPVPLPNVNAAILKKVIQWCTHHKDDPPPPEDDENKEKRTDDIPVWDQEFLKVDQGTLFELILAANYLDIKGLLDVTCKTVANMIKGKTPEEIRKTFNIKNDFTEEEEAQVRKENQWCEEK

Assays:
Assay in all cases: log2 fold change, soluble protein after heating vs DMSO (PISA); higher = thermal stabilisation; K562 lysate, 10 uM; active = over 0.2 and 3.5 SD of the protein, either way, in both replicates (recomputed)
vemurafenib = compound: CCCS(=O)(=O)Nc1ccc(F)c(C(=O)c2c[nH]c3ncc(-c4ccc(Cl)cc4)cc23)c1F [vemurafenib]
Outline: (§1)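 Quantification was by TMTpro 16plex LC-MS/MS with equalised channel sums, applied to the supernatant after 21,000xg for 90 min. Samples were crude K562 extract at 1 mg/mL protein in PBS pH 7.4 with 1 mM MgCl2, treated with 10 μM compound for 30 min, heated for 3 min across 48°C-58°C, pooled and brought to 0.5% NP-40 at 4°C. Values are log-two fold changes in thermal stability relative to solvent controls, from duplicates.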

[1] = compound: CCCS(=O)(=O)Nc1ccc(F)c(C(=O)c2c[nH]c3ncc(Cl)cc23)c1F
Outline: as §1

barasertib = compound: CCN(CCCOc1ccc2c(Nc3cc(CC(=O)Nc4cccc(F)c4)[nH]n3)ncnc2c1)CCOP(=O)(O)O [barasertib]
Outline: as §1

[2] = compound: CC[C@@H]1C(=O)N(C)c2cnc(Nc3ccc(C(=O)NC4CCN(C)CC4)cc3OC)nc2N1C1CCCC1
Outline: as §1

volasertib = compound: CC[C@@H]1C(=O)N(C)c2cnc(Nc3ccc(C(=O)N[C@H]4CC[C@H](N5CCN(CC6CC6)CC5)CC4)cc3OC)nc2N1C(C)C [volasertib]
Outline: as §1

[3] = compound: CCn1c(C(=O)N(C2CC2)C2CC2)cc2c3c(ncn3C)c(Nc3cc(C)n(C)n3)nc21
Outline: as §1

[4] = compound: CCn1cc(-c2ccnc3[nH]c(-c4cccc(CN(C)C)c4)cc23)c(-c2ccc(NC(=O)N(C)C)cc2)n1
Outline: as §1

[5] = compound: CN1CCC(CNc2ccc3ncc(-c4cccc(OC(F)(F)F)c4)n3n2)CC1
Outline: as §1

saracatinib = compound: CN1CCN(CCOc2cc(OC3CCOCC3)c3c(Nc4c(Cl)ccc5c4OCO5)ncnc3c2)CC1 [saracatinib]
Outline: as §1

sotrastaurin = compound: CN1CCN(c2nc(C3=C(c4c[nH]c5ccccc45)C(=O)NC3=O)c3ccccc3n2)CC1 [sotrastaurin]
Outline: as §1

alvocidib = compound: CN1CC[C@H](c2c(O)cc(O)c3c(=O)cc(-c4ccccc4Cl)oc23)[C@H](O)C1 [alvocidib]
Outline: as §1

Tubastatin A = compound: CN1CCc2c(c3ccccc3n2Cc2ccc(C(=O)NO)cc2)C1 [Tubastatin A]
Outline: as §1

[6] = compound: CNC(=O)C1=CC=CC=C1NC2=NC(=NC=C2Cl)NC3=C(C=C(C=C3)N4CCOCC4)OC
Outline: as §1

defactinib = compound: CNC(=O)c1ccc(Nc2ncc(C(F)(F)F)c(NCc3nccnc3N(C)S(C)(=O)=O)n2)cc1 [defactinib]
Outline: as §1

[7] = compound: CNc1nc(-c2ccc3c(N)n[nH]c3c2)cc(N2C[C@@H](C(=O)NC3CCCCC3)CC[C@H]2C)n1
Outline: as §1

encorafenib = compound: COC(=O)N[C@@H](C)CNc1nccc(-c2cn(C(C)C)nc2-c2cc(Cl)cc(NS(C)(=O)=O)c2F)n1 [encorafenib]
Outline: as §1

[8] = compound: COC(=O)[C@H](CCSC)NC(=O)C1=C(C=C(C=C1)NC[C@H](CS)N)C2=CC=CC=C2
Outline: as §1

alisertib = compound: COc1cc(Nc2ncc3c(n2)-c2ccc(Cl)cc2C(c2c(F)cccc2OC)=NC3)ccc1C(=O)O [alisertib]
Outline: as §1

[9] = compound: COc1cc2nc(-c3cc(F)ccc3O)nc(N[C@@H]3CNC[C@H]3C(C)(C)O)c2cc1OC
Outline: as §1

gefitinib = compound: COc1cc2ncnc(Nc3ccc(F)c(Cl)c3)c2cc1OCCCN1CCOCC1 [gefitinib]
Outline: as §1

| Target | log2 fold change (vemurafenib) | log2 fold change [1] | log2 fold change (barasertib) | log2 fold change [2] | log2 fold change (volasertib) | log2 fold change [3] | log2 fold change [4] | log2 fold change [5] | log2 fold change (saracatinib) | log2 fold change (sotrastaurin) | log2 fold change (alvocidib) | log2 fold change (Tubastatin A) | log2 fold change [6] | log2 fold change (defactinib) | log2 fold change [7] | log2 fold change (encorafenib) | log2 fold change [8] | log2 fold change (alisertib) | log2 fold change [9] | log2 fold change (gefitinib) |
| --- | --- | --- | --- | --- | --- | --- | --- | --- | --- | --- | --- | --- | --- | --- | --- | --- | --- | --- | --- | --- |
| SERPINB9 (UniProt P50453) | inactive: 0.009 | inactive: 0.007 | inactive: -0.048 | inactive: -0.003 | inactive: 0.029 | inactive: -0.037 | inactive: 0.05 | inactive: 0.025 | inactive: 0.009 | inactive: -0.03 | inactive: 0.01 | inactive: 0.025 | inactive: -0.012 | inactive: -0.028 | inactive: -0.003 | inactive: -0.062 | inactive: -0.007 | inactive: -0.013 | inactive: 0.004 | inactive: -0.009 |
| SIRT5 (UniProt Q9NXA8) | inactive: -0.079 | inactive: 0.11 | inactive: -0.011 | inactive: -0.033 | inactive: -0.025 | inactive: 0.02 | inactive: 0.154 | inactive: 0.017 | inactive: -0.017 | inactive: -0.062 | inactive: 0.022 | inactive: -0.02 | inactive: 0.013 | inactive: -0.074 | inactive: -0.081 | inactive: 0.027 | inactive: 0.041 | inactive: 0.063 | inactive: 0.009 | inactive: -0.111 |
| SH3GL1 (UniProt Q99961) | inactive: -0.002 | inactive: -0.01 | inactive: -0.019 | inactive: 0.044 | inactive: -0.004 | inactive: 0.018 | inactive: 0.044 | inactive: -0.022 | inactive: 0.011 | inactive: -0.03 | inactive: 0.017 | inactive: -0.109 | inactive: 0.01 | inactive: 0.03 | inactive: -0.003 | inactive: -0.02 | inactive: -0.042 | inactive: -0.011 | inactive: 0.009 | inactive: 0.002 |
| SERPINC1 (UniProt P01008) | inactive: 0.165 | inactive: -0.009 | inactive: 0.09 | inactive: 0.124 | inactive: 0.015 | inactive: -0.067 | inactive: -0.112 | inactive: 0.102 | inactive: 0.043 | inactive: -0.011 | inactive: 0.011 | inactive: 0.129 | inactive: 0.047 | inactive: -0.027 | inactive: -0.011 | inactive: -0.179 | inactive: 0.029 | inactive: -0.151 | inactive: 0.161 | inactive: -0.142 |
| SFPQ (UniProt P23246) | inactive: 0.003 | inactive: -0.013 | inactive: 0.019 | inactive: -0.003 | inactive: 0.003 | inactive: 0.011 | inactive: 0.066 | inactive: -0.047 | inactive: 0.003 | inactive: 0.006 | inactive: 0.013 | inactive: 0.01 | inactive: -0.017 | inactive: -0.011 | inactive: 0.01 | inactive: -0.012 | inactive: 0.018 | inactive: 0.013 | inactive: -0.003 | inactive: 0.012 |
| SF3B4 (UniProt Q15427) | inactive: -0.029 | inactive: -0.007 | inactive: 0.191 | inactive: 0.057 | inactive: 0.047 | inactive: -0.018 | inactive: -0.162 | inactive: 0.119 | inactive: 0.015 | inactive: -0.011 | inactive: -0.04 | inactive: 0.07 | inactive: 0.028 | inactive: 0.014 | inactive: 0.016 | inactive: -0.03 | inactive: 0.008 | inactive: 0.007 | inactive: -0.018 | inactive: -0.079 |
| SLC1A5 (UniProt Q15758) | inactive: 0.032 | inactive: 0.01 | inactive: -0.029 | inactive: 0.076 | inactive: 0.075 | inactive: -0.037 | inactive: -0.072 | inactive: 0.045 | inactive: 0.013 | inactive: 0.013 | inactive: -0.049 | inactive: 0.039 | inactive: -0.022 | inactive: -0.021 | inactive: 0.047 | inactive: 0.007 | inactive: -0.016 | inactive: 0.019 | inactive: 0.019 | inactive: -0.005 |
| SLC1A4 (UniProt P43007) | inactive: 0.011 | inactive: -0.011 | inactive: -0.026 | inactive: 0.017 | inactive: 0.021 | inactive: 0.013 | inactive: -0.084 | inactive: 0.048 | inactive: -0.02 | inactive: 0.043 | inactive: -0.039 | inactive: -0.008 | inactive: -0.015 | inactive: -0.013 | inactive: 0.064 | inactive: 0.029 | inactive: -0.036 | inactive: -0.012 | inactive: 0.027 | inactive: 0.04 |
| SHPRH (UniProt Q149N8) | inactive: 0.061 | inactive: -0.014 | inactive: 0.073 | inactive: -0.044 | inactive: 0.03 | inactive: -0.02 | inactive: 0.034 | inactive: 0.025 | inactive: 0.012 | inactive: -0.016 | inactive: -0.003 | inactive: -0.091 | inactive: 0.059 | inactive: 0.031 | inactive: -0.131 | inactive: 0.085 | inactive: 0.065 | inactive: -0.062 | inactive: -0.027 | inactive: 0.011 |
| SFXN4 (UniProt Q6P4A7) | inactive: 0.111 | inactive: 0.002 | inactive: -0.061 | inactive: 0.115 | inactive: 0.032 | inactive: -0.028 | inactive: -0.168 | inactive: 0.035 | inactive: 0.044 | inactive: 0.014 | inactive: -0.033 | inactive: 0.014 | inactive: 0.009 | inactive: -0.105 | inactive: 0.029 | inactive: 0.014 | inactive: 0.064 | inactive: -0.007 | inactive: -0.031 | inactive: -0.004 |
| SKA3 (UniProt Q8IX90) | inactive: 0.047 | inactive: 0.011 | inactive: -0.062 | inactive: 0.016 | inactive: 0.007 | inactive: -0.018 | inactive: -0.027 | inactive: 0.023 | inactive: 0.017 | inactive: 0.028 | inactive: -0.035 | inactive: -0.056 | inactive: 0.03 | inactive: 0.035 | inactive: 0.04 | inactive: 0.023 | inactive: -0.051 | inactive: 0.039 | inactive: -0.012 | inactive: 0.063 |
| SH2D2A isoform 2 (UniProt Q9NP31) | inactive: -0.018 | inactive: 0.079 | inactive: -0.131 | inactive: -0.04 | inactive: -0.125 | inactive: -0.064 | inactive: -0.075 | inactive: 0.034 | inactive: 0.094 | inactive: -0.004 | inactive: -0.025 | inactive: 0.016 | inactive: 0.087 | inactive: -0.019 | inactive: 0.044 | inactive: 0.001 | inactive: 0.188 | inactive: 0.102 | inactive: 0.025 | inactive: 0.104 |
| SETD3 (UniProt Q86TU7) | inactive: -0.017 | inactive: 0.009 | inactive: 0.055 | inactive: -0.074 | inactive: -0.016 | inactive: -0.005 | inactive: 0 | inactive: -0.019 | inactive: -0.032 | inactive: 0.013 | inactive: -0.018 | inactive: -0.011 | inactive: -0.023 | inactive: -0.021 | inactive: -0.047 | inactive: 0.025 | inactive: 0.003 | inactive: 0 | inactive: 0.001 | inactive: 0.027 |
| SERINC3 (UniProt Q13530) | inactive: 0.05 | inactive: 0.074 | inactive: -0.02 | inactive: 0.039 | inactive: 0.066 | inactive: -0.05 | active: -0.443 | inactive: 0.224 | inactive: 0.052 | inactive: 0.081 | inactive: -0.074 | inactive: -0.008 | inactive: 0.057 | inactive: -0.091 | inactive: 0.065 | inactive: 0.023 | inactive: -0.109 | inactive: -0.047 | inactive: 0.055 | inactive: 0.014 |
| SKP1 (UniProt P63208) | inactive: -0.037 | inactive: -0.016 | inactive: 0.077 | inactive: 0.068 | inactive: 0.037 | inactive: -0.032 | inactive: 0.033 | inactive: 0.002 | inactive: -0.036 | inactive: 0.033 | inactive: 0.009 | inactive: 0.047 | inactive: -0.005 | inactive: 0.008 | inactive: -0.009 | inactive: -0.007 | inactive: -0.15 | inactive: 0.005 | inactive: 0.008 | inactive: 0.01 |
| SET isoform 2 (UniProt Q01105) | inactive: 0.003 | inactive: -0.01 | inactive: -0.035 | inactive: 0.053 | inactive: 0.04 | inactive: -0.032 | inactive: -0.027 | inactive: 0.034 | inactive: 0.018 | inactive: 0.026 | inactive: 0.022 | inactive: 0.06 | inactive: -0.021 | inactive: -0.002 | inactive: 0.04 | inactive: -0.027 | inactive: -0.018 | inactive: -0.016 | inactive: 0.02 | inactive: -0.011 |
